Results are given in words; binding and its absence hold for the method and conditions named. Binding seen in cells or lysates may run through a third protein. A result given as binding can be weak or reduced; the word gives no strength. Tags and fused reporters may be left off the sequences shown.
Molecular target: T1, GST-Sli15 (S. cerevisiae) (UniProt P38283)
T1 sequence: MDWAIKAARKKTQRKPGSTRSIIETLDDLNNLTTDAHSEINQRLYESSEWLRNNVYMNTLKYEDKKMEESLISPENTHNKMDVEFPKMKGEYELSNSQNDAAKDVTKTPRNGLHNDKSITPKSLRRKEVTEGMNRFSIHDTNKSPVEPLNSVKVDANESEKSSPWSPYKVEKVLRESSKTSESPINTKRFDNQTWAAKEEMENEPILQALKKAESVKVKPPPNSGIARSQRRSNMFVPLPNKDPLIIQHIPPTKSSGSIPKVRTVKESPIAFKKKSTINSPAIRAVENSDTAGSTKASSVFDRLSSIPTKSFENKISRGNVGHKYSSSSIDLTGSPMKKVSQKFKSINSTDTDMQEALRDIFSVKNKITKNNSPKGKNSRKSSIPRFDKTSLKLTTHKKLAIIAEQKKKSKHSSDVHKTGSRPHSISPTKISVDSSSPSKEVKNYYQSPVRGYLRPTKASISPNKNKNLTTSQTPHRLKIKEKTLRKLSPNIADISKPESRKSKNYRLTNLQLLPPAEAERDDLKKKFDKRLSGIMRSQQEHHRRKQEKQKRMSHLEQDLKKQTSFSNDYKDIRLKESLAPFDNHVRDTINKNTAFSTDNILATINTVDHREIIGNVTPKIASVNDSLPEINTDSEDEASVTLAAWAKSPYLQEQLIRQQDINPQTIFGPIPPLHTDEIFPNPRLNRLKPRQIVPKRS
Assay: pull-down; GST-Sli15 immobilized on glutathione beads incubated with yeast extract, 4°C, 45 min, yeast lysis buffer (20 mM Tris pH 7.5, 100 mM NaCl, 1 mM DTT, 0.1% Triton X-100, 1 mM EDTA); anti-c-Myc Western blot; only the target purified

Sequences of proteins named here, by UniProt entry; tags and fusion partners are left off. A change or cut given only in a name is not applied to a line headed by its entry.
UniProt P38200: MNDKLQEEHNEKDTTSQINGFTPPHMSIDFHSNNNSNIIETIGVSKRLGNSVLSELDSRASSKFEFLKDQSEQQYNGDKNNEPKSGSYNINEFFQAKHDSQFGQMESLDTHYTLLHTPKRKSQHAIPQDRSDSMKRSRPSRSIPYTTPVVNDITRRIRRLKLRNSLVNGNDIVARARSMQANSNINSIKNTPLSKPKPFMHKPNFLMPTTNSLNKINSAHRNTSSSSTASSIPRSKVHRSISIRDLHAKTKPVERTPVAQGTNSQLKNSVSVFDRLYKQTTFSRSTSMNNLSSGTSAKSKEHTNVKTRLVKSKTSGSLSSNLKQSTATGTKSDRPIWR

Substance: she1-ΔN126-13myc (from UniProt P38200) (domain or fragment)
- binding: binds
